# Primary screen of a compound library

Amino acid sequences for entries named in this document (tags omitted). Residues count along the entry.
UniProt Q8IDJ8, 1-583: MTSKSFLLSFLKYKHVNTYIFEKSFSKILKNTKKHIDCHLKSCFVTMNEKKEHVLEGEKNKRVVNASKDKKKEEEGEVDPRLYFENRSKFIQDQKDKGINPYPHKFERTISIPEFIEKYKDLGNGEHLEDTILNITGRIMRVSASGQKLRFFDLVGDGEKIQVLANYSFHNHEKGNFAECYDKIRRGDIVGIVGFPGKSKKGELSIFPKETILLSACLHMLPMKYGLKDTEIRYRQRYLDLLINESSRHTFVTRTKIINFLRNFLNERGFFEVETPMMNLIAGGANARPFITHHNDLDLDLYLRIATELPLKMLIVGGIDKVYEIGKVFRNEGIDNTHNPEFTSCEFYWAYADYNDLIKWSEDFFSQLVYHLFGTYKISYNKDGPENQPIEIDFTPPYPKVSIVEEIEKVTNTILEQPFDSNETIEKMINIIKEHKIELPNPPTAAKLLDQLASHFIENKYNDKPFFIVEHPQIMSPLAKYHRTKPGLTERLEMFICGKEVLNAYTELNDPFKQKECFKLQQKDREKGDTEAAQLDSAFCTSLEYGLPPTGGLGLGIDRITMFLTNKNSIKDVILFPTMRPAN
UniProt A4I591, 1-473: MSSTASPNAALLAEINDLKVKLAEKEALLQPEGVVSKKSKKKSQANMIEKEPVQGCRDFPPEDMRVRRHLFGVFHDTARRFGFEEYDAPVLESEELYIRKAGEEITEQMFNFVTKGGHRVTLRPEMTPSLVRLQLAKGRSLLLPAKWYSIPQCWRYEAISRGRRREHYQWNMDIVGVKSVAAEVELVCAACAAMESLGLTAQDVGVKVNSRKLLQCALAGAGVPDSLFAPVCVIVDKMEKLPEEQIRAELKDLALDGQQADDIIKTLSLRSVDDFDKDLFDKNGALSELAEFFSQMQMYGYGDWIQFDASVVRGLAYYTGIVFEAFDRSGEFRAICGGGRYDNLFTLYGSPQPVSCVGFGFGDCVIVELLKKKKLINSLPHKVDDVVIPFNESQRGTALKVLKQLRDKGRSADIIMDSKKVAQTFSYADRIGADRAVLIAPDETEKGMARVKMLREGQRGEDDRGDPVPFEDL

Values are the deposited “Percent Effect”, in %.
The controls that fix the scale are not given in the record; negative values are as filed.
The compounds are a random part of those screened.
Two or more numbers in one place are separate tests of the same structure; such repeats can differ widely.
A dash means the value is not listed here; it may have been measured.

Leishmania in macrophages: 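Cell assay of Leishmania donovani living inside macrophages; the read-out is not stated. Compounds at 30 µM. The record gives no direction; compounds that gave an IC50 in retests scored well above the rest, so higher reads as stronger inhibition. Of about 69,000 compounds tested this way, about 1,000 (1.5%) reached 50% or more in at least one test.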
PfKRS1: 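Enzyme assay of the cytosolic lysyl-tRNA synthetase in 384-well plates, read by luminescence. Target: Lysine-tRNA ligase, Plasmodium falciparum 3D7 (UniProt Q8IDJ8). Tested at 30 µM. Direction is inferred from only a few compounds that gave an IC50; most scored high, so higher reads as stronger inhibition. About 69,000 compounds were tested under these conditions; 0.071% (about 49) showed 50% or more at least once.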
LiHisRS: 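Enzyme assay of histidyl-tRNA synthetase; the read-out is not stated. Target: Histidine-tRNA ligase, Leishmania infantum (UniProt A4I591). Concentration: 30 µM. The record gives no direction; compounds that gave an IC50 in retests scored well above the rest, so higher reads as stronger inhibition. The assay is labelled LdHisRS but filed under L. infantum. About 69,000 compounds were tested under these conditions; 0.6% (about 410) showed 50% or more at least once.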

| Compound | Leishmania in macrophages | PfKRS1 | LiHisRS |
|---|---|---|---|
| `CC(C)CNC(=O)Nc1cccc(OCC#N)c1` | 7.12 | 1.387 | 7.254 |
| `CN1CCN(Cc2cccnc2)C2(CCN(C3CCOCC3)C2)C1=O` (stereo not drawn) | - | 4.294 | 28.77 |
| `Cc1nn(C)cc1C1=NS(=O)(=O)N(C)C(C(=O)Nc2ccc(Cl)cc2)=C1` | 22.09 | 2.383 | 1.408 |
| `O=C(c1cnn2cc(CCO)cnc12)N1CCOC(C(F)(F)F)C1` (stereo not drawn) | 25.99 | 4.368 | -3.947 |
| `COc1cc(N2C[C@@H](C)[C@](O)(C3CC3)C2)ncn1` | -12.58 | 0.8663 | 4.918 |
| `Cc1ncc2c(n1)CN(Cc1nc(-c3ccsc3)no1)CC2` | 0.9555 | 0.4763 | 27.19 |
| `N#Cc1ccc(N2CCC3(CC2)CC(Oc2cccnc2)CO3)cc1.O=C(O)C(F)(F)F` (stereo not drawn) | 22.02 & -4.654 | - | - |
| `CC1CCN(S(=O)(=O)NCc2ccccc2Cn2cccn2)CC1` | -12.31 | -2.755 | 12.28 |
| `Cc1nc2[nH]cnc(NCCN3CCOCC3)c-2n1` | -23.73 | -0.8008 | 12.09 |
| `CC(C)(C)C(=O)N1CCCC1c1nccnc1Cl` (stereo not drawn) | 23.71 | 0.3356 | 7.092 |
| `O[C@H]1CN(CCOc2ccc(F)cc2)CC[C@@]12CCCO2` | 19.7 & 20.69 | 0.3456 | 1.053 |
| `O=C(C1CC(F)(F)C1)N1CC[C@H]2OCC[C@@]2(COCC2CC2)C1` | - | 7.749 | 15.38 |
| `Cc1cnc(C(=O)N2CCC3(CCN3Cc3ccc(F)cc3)C2)cn1` (stereo not drawn) | - | 2.236 | 3.96 |
| `Cc1cc(=O)n2ncnc2n1CC(O)c1ccccc1F` (stereo not drawn) | 14.42 | 2.954 | 17.6 |
| `Cc1cnn(CC(=O)N2CCC(c3ccn4nccc4n3)CC2)c1` | -6.355 | -0.7768 | 9.396 |
| `CC1CN(C)c2ccccc2CN1C(=O)c1cc(C#N)cn1C` (stereo not drawn) | -18.66 | 0.07018 | 24.29 |
| `CC(=O)Nc1ccc(Cl)c(C(=O)N(C)C(C)c2ccncn2)c1` (stereo not drawn) | 39.16 | 0.5307 | 23.08 |
| `CCc1nnc(CN(C)c2nccc(CCC(F)(F)F)n2)o1` | -1.032 | 6.303 | 28.57 |
| `O=C(O)C(F)(F)F.[H][C@]12C[C@@H](Cn3cncn3)N(C(C)C)[C@@]1([H])CCN(c1ncccn1)C2` | 27.86 | - | - |
| `Cc1ccc(CNC(c2ccc(F)cc2)c2nccn2C)o1` (stereo not drawn) | -43.33 | 3.78 | 19.35 |
| `c1ccc(COC[C@]23COC[C@H]2CN(c2ncccn2)C3)nc1` | - | -3.774 | 5.556 |
| `Cc1ccc(N2C[C@@H]3CN(C(=O)NC4CCCC4)C[C@]3(C(=O)O)C2)nn1` | - | -0.1386 | 3.922 |
| `Cc1cnn(CCNCC(=O)N(C)C(C)c2ccccc2)c1` (stereo not drawn) | -14.5 | 3.409 | 19.51 |
| `[H][C@@]12CS(=O)(=O)C[C@]1([H])N(Cc1ccc(C#N)cc1)CCN2C(=O)C1CCC1` | -0.3623 | - | - |
| `[H][C@@]12C[C@H](C(=O)Nc3cnccn3)CN(c3ncc(F)cn3)[C@]1([H])CCO2` | 25.64 | - | - |
| `CCOC(=O)c1cnn(C2CCN(C(=O)CC(C)(C)C)CC2)c1N` | 23.77 | 4.137 | 11.5 |
| `CC(=O)N1CC2(CCCC2)c2ccccc21` | 23.2 | 4.017 | 7.292 |
| `CC(=O)NCCNC(=O)CNC1CCCN(c2ccc(C)nn2)C1` (stereo not drawn) | -8.603 | -1.019 | -5.263 |
| `Cn1cc(CN2CCOC3(CCCN(c4cccc(F)c4)C3)C2)cn1.O=C(O)C(F)(F)F.O=C(O)C(F)(F)F` (stereo not drawn) | -5.942 | - | - |
| `Cc1noc(C)c1CN1CCC2(CC1)CC(Oc1cccnc1)CO2` (stereo not drawn) | - | 11.9 | 13.79 |
| `[H][C@@]12CCCO[C@]1([H])[C@H](NC(=O)CC1CC1)CN(Cc1ccc(OC)cc1)C2` | 14.65 | - | - |
| `Cc1nccc(N[C@H]2CN(CC(C)(C)N3CCOCC3)C[C@@H]2C2CC2)n1` | 5.528 | 1.599 | 0 |
| `CCn1c(C2CCNCC2)nn(Cc2ccc(C(=O)NC)o2)c1=O` | 4.609 | -1.007 | 12.24 |
| `CCOC(=O)c1sc2ccsc2c1CNC(=O)C(C)(C)C#N` | 15.45 | 0.04983 | 12.31 |
| `CC(C)NC(=O)CNC(C)c1c(F)cccc1Cl` (stereo not drawn) | -24.44 | -0.998 | 12.35 |
| `c1c[nH]c2nc(C3CCNC3)nc-2c1` (stereo not drawn) | 21.93 | 7.68 | 12.41 |
| `CC(C)CN1CC(O)CN(S(=O)(=O)c2ccccc2)CC1=O` (stereo not drawn) | -1.941 | 4.753 | 10.2 |
| `[H][C@]12CC[C@]([H])(CN(C(=O)CCn3cccn3)C1)N(Cc1ccccn1)C2=O` | -7.542 | - | - |
| `Cc1ccc(N2CCO[C@H]3CN(Cc4cc(C)on4)CC[C@H]3C2=O)cn1` | - | 0.09872 | 21 |
| `Cn1ccnc1SCCNC1CCN(c2nc3ccccc3s2)CC1` | 43.39 | 0.9463 | 10.96 |
| `O=C(O)C(F)(F)F.O=C(O)C(F)(F)F.O=C(O)C(F)(F)F.[H][C@@]12C[C@H](C(=O)NCCN(C)C)N(C)[C@]1([H])CN(c1ncccn1)C2` | 5.064 | - | - |
| `CCOCC1CCN(C(=O)C(c2cccc(F)c2)N(C)C)CC1` (stereo not drawn) | 18.84 | -4.546 | 1.639 |
| `CCOc1ncccc1NC(=O)NC1CCCN(c2ncccn2)C1` (stereo not drawn) | 26.57 | 4.653 | 21.88 |
| `Cc1nnc2n1CCN(CC(=O)NC(C)c1cccc3ccccc13)C2` (stereo not drawn) | -27.74 | -0.2851 | 6.25 |
| `CS(=O)(=O)c1cncnc1C1CCCN(C(=O)NCc2ccccc2)C1` (stereo not drawn) | 21.75 | 0.5833 | 0 |
| `COc1ccc2c(C)c(C(=O)N3CCC(NC(C)=O)C3)oc2c1` (stereo not drawn) | -6.137 | 3.084 | 3.125 |
| `CCCC(O)CN1CC(C)(C)CN(C(=O)c2ccc(SC)cc2)CC1=O` (stereo not drawn) | -2.931 | 2.77 | 10.31 |
| `COc1cc(C(C)NCc2ncccc2C)ccc1SC(F)F` (stereo not drawn) | -32.25 | -10.91 | -1.613 |
| `CC(=O)c1cccc(OCC(=O)NS(=O)(=O)c2ccc(C)s2)c1` | 1.358 | 3.828 | 3.371 |
| `CC(NC(=O)NCCCn1cccn1)c1cccnc1` (stereo not drawn) | -30.82 | -2.536 | -2.913 |
| `CCC(=O)NC(c1ccc(C)cc1)c1cccc(S(C)(=O)=O)c1` (stereo not drawn) | -14.84 | -0.1345 | 11.9 |
| `CN(C)c1ncc(-c2ccc(C(N)=O)cc2)c(C2CNCCO2)n1` (stereo not drawn) | 25.08 | 1.709 | 5.369 |

Some entries from above, unchanged:

| Compound | Leishmania in macrophages | PfKRS1 | LiHisRS |
|---|---|---|---|
| `CC(NC(=O)NCCCn1cccn1)c1cccnc1` (stereo not drawn) | -30.82 | -2.536 | -2.913 |
| `CN1CCN(Cc2cccnc2)C2(CCN(C3CCOCC3)C2)C1=O` (stereo not drawn) | - | 4.294 | 28.77 |
| `CC1CN(C)c2ccccc2CN1C(=O)c1cc(C#N)cn1C` (stereo not drawn) | -18.66 | 0.07018 | 24.29 |
| `O=C(C1CC(F)(F)C1)N1CC[C@H]2OCC[C@@]2(COCC2CC2)C1` | - | 7.749 | 15.38 |
| `CCC(=O)NC(c1ccc(C)cc1)c1cccc(S(C)(=O)=O)c1` (stereo not drawn) | -14.84 | -0.1345 | 11.9 |
| `Cc1cc(=O)n2ncnc2n1CC(O)c1ccccc1F` (stereo not drawn) | 14.42 | 2.954 | 17.6 |

Source: ChEMBL document CHEMBL3988442, “University of Dundee, Small-Polar-MMV Screening Library” (2021).